PubChem BioAssay AID1671195 | Yale University | 2021

Aim: 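Regulators of LDL receptor activity judged by labelled LDL uptake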 (primary screen)
Cell system: human Huh7 hepatoma cells
Reagents: siRNA pool against human genes, 18 nM
Timing: about 2 to 2.5 days of knockdown, then 8 h LDL uptake
Conditions: DiI-labelled LDL at 30 µg/ml for 8 h, in lipoprotein-deficient serum medium
Measured: 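Per-cell DiI-LDL intensity by automated imaging; well means scaled to the plate median and given as a robust z-score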
Reading the numbers: robust z-score: higher = more LDL uptake after knockdown
Active means: 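Active when two or more replicates show a robust z-score above 2 or below -2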
The deposit covers about 22,000 reagents; below is a part drawn at random. About 1,510 of them (6.9%) count as active. 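Active includes knockdowns raising or lowering LDL uptake; positive z-scores mean more uptake, negative mean less.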 No sequences are given here.

gene | robust z-score, replicate 1 | robust z-score, replicate 2 | robust z-score, replicate 3 | activity call
MLIP (muscular LMNA interacting protein) | -0.128 | -0.412 | -0.821 | inactive
LOC442470 (retired record) | -0.347 | 0.286 | 0.0637 | inactive
LMF2 (lipase maturation factor 2) | -0.293 | -0.142 | -0.111 | inactive
SLC27A5 | 0.199 | 0.347 | -0.902 | inactive
GOLT1A (golgi transport 1A) | -0.0128 | -0.157 | 1.23 | inactive
SLC30A8 | 0.215 | 0.727 | 0.0408 | inactive
HS3ST3A1 (heparan sulfate-glucosamine 3-sulfotransferase 3A1) | 1.93 | 2.2 | 2.03 | active
ZER1 (zyg-11 related cell cycle regulator) | -0.97 | 1.28 | -1.13 | inactive
SLC30A1 | 0.662 | 0.346 | 0.907 | inactive
WDR87 (WD repeat domain 87) | -0.174 | 1.03 | 0.92 | inactive
AQP6 (aquaporin 6) | -0.295 | -0.35 | -0.546 | inactive
SPPL2C (signal peptide peptidase like 2C) | 2.55 | 1.37 | 1.56 | inactive
LOC441121 (retired record) | -0.685 | -0.354 | -0.663 | inactive
USP9X (ubiquitin specific peptidase 9 X-linked) | 0.339 | -0.614 | 0.453 | inactive
PLK3 (polo like kinase 3) | 0.0629 | 0.308 | 0.178 | inactive
DSC2 (desmocollin 2) | -0.00588 | -0.162 | 0.311 | inactive
WDR37 (WD repeat domain 37) | 0.882 | 0.902 | 1.38 | inactive
ADRA2B (adrenoceptor alpha 2B) | -1.71 | -1.08 | -1.84 | inactive
SSBP4 (single stranded DNA binding protein 4) | 0.617 | 0.886 | 0.468 | inactive
ZNF195 (zinc finger protein 195) | 0.154 | 0.64 | 0.339 | inactive
NXT1 (nuclear transport factor 2 like export factor 1) | 0.0554 | 2.12 | -0.374 | inactive
TTC9B (tetratricopeptide repeat domain 9B) | -1.57 | -0.643 | -1.09 | inactive
GABRG2 (gamma-aminobutyric acid type A receptor subunit gamma2) | 0.789 | 0.365 | 0.103 | inactive
HRG (histidine rich glycoprotein) | -0.106 | -0.294 | -0.3 | inactive
TUBGCP2 (tubulin gamma complex component 2) | 2.5 | 2.01 | 1.27 | active
MUC15 (mucin 15, cell surface associated) | 0.741 | 0.287 | 0.697 | inactive
PDCD5 (programmed cell death 5) | 1.41 | -0.58 | -0.122 | inactive
IFI6 (interferon alpha inducible protein 6) | 3.11 | 2.55 | 2.55 | active
SIPA1 (signal-induced proliferation-associated 1) | 1.28 | -0.638 | -0.959 | inactive
LOC400944 (retired record) | -0.88 | -0.821 | -0.355 | inactive
ITK (IL2 inducible T cell kinase) | -0.393 | -0.00118 | -0.721 | inactive
KLHL41 (kelch like family member 41) | -0.405 | -0.0263 | -0.000182 | inactive
RPL19P13 (ribosomal protein L19 pseudogene 13) | 1.43 | 1.8 | 1.29 | inactive
HTR1D (5-hydroxytryptamine receptor 1D) | 0.311 | -0.975 | -0.0791 | inactive
HAS2 (hyaluronan synthase 2) | -1.05 | -1.34 | -1.23 | inactive
SLA (Src like adaptor) | 0.53 | 0.0203 | -0.364 | inactive
MNX1 (motor neuron and pancreas homeobox 1) | -0.875 | -1.07 | -1.92 | inactive
FAM120B (family with sequence similarity 120 member B) | 0.915 | 1.36 | 2.07 | inactive
ZXDB (zinc finger X-linked duplicated B) | -1.13 | -0.965 | -0.875 | inactive
TAPT1 (transmembrane anterior posterior transformation 1) | -0.107 | 0.0564 | 0.143 | inactive
OR10H3 (olfactory receptor family 10 subfamily H member 3) | 0.0998 | -0.337 | 0.503 | inactive
TRMT2B (tRNA methyltransferase 2B) | 1.01 | 0.373 | 0.54 | inactive
LOC401191 | 1.84 | 0.00294 | 2.15 | inactive
CLUH (CLUH binding protein of NUMT mRNA) | -1.41 | 0.593 | -0.787 | inactive
SPTSSB (serine palmitoyltransferase small subunit B) | -0.388 | 0.34 | 0.582 | inactive
PLCXD3 | -0.183 | -0.224 | -0.329 | inactive
PGK1 (phosphoglycerate kinase 1) | -0.583 | -0.031 | -0.873 | inactive
ZNF37A (zinc finger protein 37A) | 0.569 | 0.721 | 0.72 | inactive
SNX1 (sorting nexin 1) | 1.16 | 0.54 | 0.387 | inactive
UGT1A4 (UDP glucuronosyltransferase family 1 member A4) | -0.651 | -0.63 | -0.0529 | inactive
MRPS15 (mitochondrial ribosomal protein S15) | 1.21 | 0.895 | 1.11 | inactive
NXF3 (nuclear RNA export factor 3) | -1.14 | -1.71 | -1.61 | inactive
SFN (stratifin) | 0.611 | 1.28 | -0.284 | inactive
HOXD1 (homeobox D1) | -0.561 | -0.287 | -0.493 | inactive
LOC392559 (retired record) | -3.29 | -2.82 | -2.74 | active
SALL1 (spalt like transcription factor 1) | -1.65 | -1.82 | -1.38 | inactive
MTRFR (mitochondrial translation release factor in rescue) | 0.2 | 0.229 | 0.295 | inactive
CRX (cone-rod homeobox) | -0.679 | -1.09 | -0.618 | inactive
MARCHF4 (membrane associated ring-CH-type finger 4) | -1.14 | 0.405 | -0.434 | inactive
TEX11 (testis expressed 11) | -0.955 | -1.29 | -1.45 | inactive
PRPF31 (pre-mRNA processing factor 31) | 0.125 | 1.02 | 0.0026 | inactive
PITPNM1 (phosphatidylinositol transfer protein membrane associated 1) | 1.07 | 0.216 | 0.0869 | inactive
CDH26 (cadherin 26) | -1.9 | -1.6 | -1.95 | inactive
SLC41A2 | -1.17 | -1.28 | -1.41 | inactive
SLC12A2 | 2.51 | 4.13 | 4.41 | active
ATXN7L1 (ataxin 7 like 1) | 0.571 | 0.465 | 0.585 | inactive
CKS1B (CDC28 protein kinase regulatory subunit 1B) | -0.0721 | -0.155 | -0.308 | inactive
CHCHD6 (coiled-coil-helix-coiled-coil-helix domain containing 6) | 1.17 | 1.71 | 0.327 | inactive

Hits, of those listed so far:
gene | robust z-score, replicate 1 | robust z-score, replicate 2 | robust z-score, replicate 3 | activity call
HS3ST3A1 (heparan sulfate-glucosamine 3-sulfotransferase 3A1) | 1.93 | 2.2 | 2.03 | active
TUBGCP2 (tubulin gamma complex component 2) | 2.5 | 2.01 | 1.27 | active
IFI6 (interferon alpha inducible protein 6) | 3.11 | 2.55 | 2.55 | active
LOC392559 (retired record) | -3.29 | -2.82 | -2.74 | active
SLC12A2 | 2.51 | 4.13 | 4.41 | active
